In publication PMC4481513, “Structural and Functional Analysis of Human HtrA3 Protease and Its Subdomains” (PLoS ONE, 2015):
Results are given in words; binding and its absence hold for the method and conditions named. Some results given as binding are weak or reduced against the parent protein; the word gives no strength.

Target: ΔN-HtrA3_(S305A) (residues 130–453–His6), proteolytically inactive N-terminally truncated HtrA3L with protease and PDZ domains (human) (UniProt P83110)
Assay: cross-linking; Bis(sulfosuccinimidyl) suberate (BS3), then SDS-PAGE; data not shown; both purified

B1: ΔN-HtrA3_(S305A) (residues 130–453–His6), proteolytically inactive N-terminally truncated HtrA3L with protease and PDZ domains (domain or fragment, human, UniProt P83110 130-453, looked up)
chain: LHQLSSPRYKFNFIADVVEKIAPAVVHIELFLRHPLFGRNVPLSSGSGFIMSEAGLIITNAHVVSSNSAAPGRQQLKVQLQNGDSYEATIKDIDKKSDIATIKIHPKKKLPVLLLGHSADLRPGEFVVAIGSPFALQNTVTTGIVSTAQREGRELGLRDSDMDYIQTDAIINYGNAGGPLVNLDGEVIGINTLKVTAGISFAIPSDRITRFLTEFQDKQIKDWKKRFIGIRMRTITPSLVDELKASNPDFPEVSSGIYVQEVAPNSPSQRGGIQDGDIIVKVNGRPLVDSSELQEAVLTESPLLLEVRRGNDDLLFSIAPEVVM
notes: human HtrA3 long isoform (HtrA3L), residues 130-453: serine protease domain and PDZ domain, catalytic serine changed to alanine; Chain A of the structure runs to residue 459, that is into the His tag; also called ΔN-HtrA3-His6; pPG1; source: E. coli BL21(DE3) clpP::Cm r, purified (Ni-NTA; before crystallization also Superdex 200 gel filtration); not shown: His6, C-terminal, kept
In the case of B1, the binding is reported as “binds”.
